Measurements from paper PMC10889368, “Mesenchymal Transglutaminase 2 Activates Epithelial ADAM17: Link to G-Protein-Coupled Receptor 56 (ADGRG1) Signalling” (International Journal of Molecular Sciences, 2024).
These are yes or no findings as the source states them, for the method shown.

Protein sequences, listed by entry. Tags and fused reporters are not part of them. Residues count along the entry.
UniProt Q9Y653, residues 26-382: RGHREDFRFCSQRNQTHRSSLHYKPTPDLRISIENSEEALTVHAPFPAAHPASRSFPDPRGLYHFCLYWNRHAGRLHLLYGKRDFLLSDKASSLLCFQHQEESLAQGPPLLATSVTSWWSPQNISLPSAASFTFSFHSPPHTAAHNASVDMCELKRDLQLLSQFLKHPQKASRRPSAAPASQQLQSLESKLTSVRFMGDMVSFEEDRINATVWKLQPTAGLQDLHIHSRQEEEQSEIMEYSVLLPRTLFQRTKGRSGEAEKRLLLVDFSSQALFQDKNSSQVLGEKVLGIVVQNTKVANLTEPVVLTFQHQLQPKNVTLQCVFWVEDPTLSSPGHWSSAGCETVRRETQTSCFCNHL

Target: 1-382 N-GPR56-Fc fusion protein (human) (UniProt Q9Y653)
Assay: SPR; as a2 but with 3 mM GTP instead of Ca2+: BIAcore T200, protein A chip with captured 1-382 N-GPR56-Fc, C277S-TG2 as analyte, 25 °C, HBS; both purified

binding: no binding (condition: with 3 mM GTP)
B1: C277S-TG2 (catalytically deficient TG2 C277S mutant) (enzyme, UniProt P21980 1-687)
chain: MAEELVLERCDLELETNGRDHHTADLCREKLVVRRGQPFWLTLHFEGRNYEASVDSLTFSVVTGPAPSQEAGTKARFPLRDAVEEGDWTATVVDQQDCTLSLQLTTPANAPIGLYRLSLEASTGYQGSSFVLGHFILLFNAWCPADAVYLDSEEERQEYVLTQQGFIYQGSAKFIKNIPWNFGQFEDGILDICLILLDVNPKFLKNAGRDCSRRSSPVYVGRVVSGMVNCNDDQGVLLGRWDNNYGDGVSPMSWIGSVDILRRWKNHGCQRVKYGQSWVFAAVACTVLRCLGIPTRVVTNYNSAHDQNSNLLIEYFRNEFGEIQGDKSEMIWNFHCWVESWMTRPDLQPGYEGWQALDPTPQEKSEGTYCCGPVPVRAIKEGDLSTKYDAPFVFAEVNADVVDWIQQDDGSVHKSINRSLIVGLKISTKSVGRDEREDITHTYKYPEGSSEEREAFTRANHLNKLAEKEETGMAMRIRVGQSMNMGSDFDVFAHITNNTAEEYVCRLLLCARTVSYNGILGPECGTKYLLNLNLEPFSEKSVPLCILYEKYRDCLTESNLIKVRALLVEPVINSYLLAERDLYLENPEIKIRILGEPKQKRKLVAEVSLQNPLPVALEGCTFTVEGAGLTEEQKTVEIPDPVEAGEEVKVRMDLLPLHMGLHKLVVNFESDKLKAVKGFRNVIIGPA
